Measured values: patent US20090192298A1, “Through-bond energy transfer cassettes, systems and methods” (priority 2007, published 2009)
Some entries share one result that the patent states for a list of compounds. At least one compound was matched to its structure with a doubt left.

Assay: Fluorescence properties of water-soluble Nile Blue derivatives in aqueous media
Format: physicochemical
Text: A dye may include, in some embodiments, one or more of Nile Blue derivatives 17-20 (FIG. 11).

Row | SMILES | fluorescence region
1 | CCN(CCCS(=O)(=O)O)c1ccc2nc3c4cc(O)ccc4c(=NCCCS(=O)(=O)O)cc-3oc2c1.Cl [compound 17] | 670-680 nm
2 | Cl.O=C(O)CCN(CCC(=O)O)c1ccc2nc3c4cc(O)ccc4c(=NCCCS(=O)(=O)O)cc-3oc2c1 [compound 18] | 670-680 nm
